Measurements reported in article PMC5927464 (2018).

B1: Flag-MuRNase L H311A (enzyme, UniProt Q05921 1-735)
chain: METPDYNTPQGGTPSAGSQRTVVEDDSSLIKAVQKGDVVRVQQLLEKGADANACEDTWGWTPLHNAVQAGRVDIVNLLLSHGADPHRRKKNGATPFIIAGIQGDVKLLEILLSCGADVNECDENGFTAFMEAAERGNAEALRFLFAKGANVNLRRQTTKDKRRLKQGGATALMSAAEKGHLEVLRILLNDMKAEVDARDNMGRNALIRTLLNWDCENVEEITSILIQHGADVNVRGERGKTPLIAAVERKHTGLVQMLLSREGINIDARDNEGKTALLIAVDKQLKEIVQLLLEKGADKCDDLVWIARRNADYHLVKLLLPYVANPDTDPPAGDWSPHSSRWGTALKSLHSMTRPMIGKLKIFIHDDYKIAGTSEGAVYLGIYDNREVAVKVFRENSPRGCKEVSCLRDCGDHSNLVAFYGREDDKGCLYVCVSLCEWTLEEFLRLPREEPVENGEDKFAHSILLSIFEGVQKLHLHGYSHQDLQPQNILIDSKKAVRLADFDQSIRWMGESQMVRRDLEDLGRLVLYVVMKGEIPFETLKTQNDEVLLTMSPDEETKDLIHCLFSPGENVKNCLVDLLGHPFFWTWENRYRTLRNVGNESDIKVRKCKSDLLRLLQHQTLEPPRSFDQWTSKIDKNVMDEMNHFYEKRKKNPYQDTVGDLLKFIRNIGEHINEEKKRGMKEILGDPSRYFQETFPDLVIYIYKKLKETEYRKHFPQPPPRLSVPEAVGPGGIQS
B2: Flag-MuRNase L–G47, N50, V51 (enzyme, UniProt Q05921 1-735)
chain: METPDYNTPQGGTPSAGSQRTVVEDDSSLIKAVQKGDVVRVQQLLEGGANVNACEDTWGWTPLHNAVQAGRVDIVNLLLSHGADPHRRKKNGATPFIIAGIQGDVKLLEILLSCGADVNECDENGFTAFMEAAERGNAEALRFLFAKGANVNLRRQTTKDKRRLKQGGATALMSAAEKGHLEVLRILLNDMKAEVDARDNMGRNALIRTLLNWDCENVEEITSILIQHGADVNVRGERGKTPLIAAVERKHTGLVQMLLSREGINIDARDNEGKTALLIAVDKQLKEIVQLLLEKGADKCDDLVWIARRNHDYHLVKLLLPYVANPDTDPPAGDWSPHSSRWGTALKSLHSMTRPMIGKLKIFIHDDYKIAGTSEGAVYLGIYDNREVAVKVFRENSPRGCKEVSCLRDCGDHSNLVAFYGREDDKGCLYVCVSLCEWTLEEFLRLPREEPVENGEDKFAHSILLSIFEGVQKLHLHGYSHQDLQPQNILIDSKKAVRLADFDQSIRWMGESQMVRRDLEDLGRLVLYVVMKGEIPFETLKTQNDEVLLTMSPDEETKDLIHCLFSPGENVKNCLVDLLGHPFFWTWENRYRTLRNVGNESDIKVRKCKSDLLRLLQHQTLEPPRSFDQWTSKIDKNVMDEMNHFYEKRKKNPYQDTVGDLLKFIRNIGEHINEEKKRGMKEILGDPSRYFQETFPDLVIYIYKKLKETEYRKHFPQPPPRLSVPEAVGPGGIQS
B3: Flag-HuRNase L—K47, D50, A51 (enzyme, UniProt Q05823 21-719)
chain: AAVEDNHLLIKAVQNEDVDLVQQLLEKGADANFQEEEGGWTPLHNAVQMSREDIVELLLRHGADPVLRKKNGATPFILAAIAGSVKLLKLFLSKGADVNECDFYGFTAFMEAAVYGKVKALKFLYKRGANVNLRRKTKEDQERLRKGGATALMDAAEKGHVEVLKILLDEMGADVNACDNMGRNALIHALLSSDDSDVEAITHLLLDHGADVNVRGERGKTPLILAVEKKHLGLVQRLLEQEHIEINDTDSDGKTALLLAVELKLKKIAELLCKRGASTDCGDLVMTARRNYDHSLVKVLLSHGAKEDFHPPAEDWKPQSSHWGAALKDLHRIYRPMIGKLKFFIDEKYKIADTSEGGIYLGFYEKQEVAVKTFCEGSPRAQREVSCLQSSRENSHLVTFYGSESHRGHLFVCVTLCEQTLEACLDVHRGEDVENEEDEFARNVLSSIFKAVQELHLSCGYTHQDLQPQNILIDSKKAAHLADFDKSIKWAGDPQEVKRDLEDLGRLVLYVVKKGSISFEDLKAQSNEEVVQLSPDEETKDLIHRLFHPGEHVRDCLSDLLGHPFFWTWESRYRTLRNVGNESDIKTRKSESEILRLLQPGPSEHSKSFDKWTTKINECVMKKMNKFYEKRGNFYQNTVGDLLKFIRNLGEHIDEEKHKKMKLKIGDPSLYFQKTFPDLVIYVYTKLQNTEYRKHFPQT

molecular target: HA-tagged L* protein of TMEV strain DA (HA-L*DA) (Theiler's murine encephalomyelitis virus, strain DA); experiment: co-IP; Flag-tagged RNase L constructs and N-terminally HA-tagged L* co-expressed in 293T cells; HA-L* immunoprecipitated from lysates with anti-HA antibody and protein A/G magnetic beads; immunoblot with anti-Flag and anti-HA

Row | Binder | binding
1 | B1 | binds
2 | B2 | binds
3 | B3 | binds

No constants are given. Whether binding was seen depends on the method and setting. Binding seen in cells or lysates may run through a third protein. Binding calls can cover weak binding; strength is not graded here. Tags and fused reporters may be left off the sequences shown.
